Reference: US20070254895A1, “Crystalline solvate of glucokinase activator” (priority 2006, published 2007)

CS(=O)(=O)c1ccc([C@@H](C[C@H]2CCC(=O)C2)C(=O)Nc2cnccn2)cc1Cl [IPA solvate, 2(R)-(3-Chloro-4-methanesulfonyl-phenyl)-3-((R)-3-oxo-cyclopentyl)-N-pyrazin-2-yl-propionamide]
weight lost on exposure to high humidity (95% relative humidity and 25° C. for 4 days): about 3.8% | changes in powder XRD pattern (water vapor treated sample and stability sample at 40° C./75% RH for 3 months vs control): no changes in powder XRD pattern
